Read-outs that look alike come from different tables or passages of the source. No constants are given. Whether binding was seen depends on the method and setting. Binding seen in cells or lysates may run through a third protein. Some entries that bind do so weakly or less than the wild type. Sequences can lack the tags named with a protein.

The chains behind the UniProt entries cited, without tags or fusion partners.
UniProt Q6P4S8: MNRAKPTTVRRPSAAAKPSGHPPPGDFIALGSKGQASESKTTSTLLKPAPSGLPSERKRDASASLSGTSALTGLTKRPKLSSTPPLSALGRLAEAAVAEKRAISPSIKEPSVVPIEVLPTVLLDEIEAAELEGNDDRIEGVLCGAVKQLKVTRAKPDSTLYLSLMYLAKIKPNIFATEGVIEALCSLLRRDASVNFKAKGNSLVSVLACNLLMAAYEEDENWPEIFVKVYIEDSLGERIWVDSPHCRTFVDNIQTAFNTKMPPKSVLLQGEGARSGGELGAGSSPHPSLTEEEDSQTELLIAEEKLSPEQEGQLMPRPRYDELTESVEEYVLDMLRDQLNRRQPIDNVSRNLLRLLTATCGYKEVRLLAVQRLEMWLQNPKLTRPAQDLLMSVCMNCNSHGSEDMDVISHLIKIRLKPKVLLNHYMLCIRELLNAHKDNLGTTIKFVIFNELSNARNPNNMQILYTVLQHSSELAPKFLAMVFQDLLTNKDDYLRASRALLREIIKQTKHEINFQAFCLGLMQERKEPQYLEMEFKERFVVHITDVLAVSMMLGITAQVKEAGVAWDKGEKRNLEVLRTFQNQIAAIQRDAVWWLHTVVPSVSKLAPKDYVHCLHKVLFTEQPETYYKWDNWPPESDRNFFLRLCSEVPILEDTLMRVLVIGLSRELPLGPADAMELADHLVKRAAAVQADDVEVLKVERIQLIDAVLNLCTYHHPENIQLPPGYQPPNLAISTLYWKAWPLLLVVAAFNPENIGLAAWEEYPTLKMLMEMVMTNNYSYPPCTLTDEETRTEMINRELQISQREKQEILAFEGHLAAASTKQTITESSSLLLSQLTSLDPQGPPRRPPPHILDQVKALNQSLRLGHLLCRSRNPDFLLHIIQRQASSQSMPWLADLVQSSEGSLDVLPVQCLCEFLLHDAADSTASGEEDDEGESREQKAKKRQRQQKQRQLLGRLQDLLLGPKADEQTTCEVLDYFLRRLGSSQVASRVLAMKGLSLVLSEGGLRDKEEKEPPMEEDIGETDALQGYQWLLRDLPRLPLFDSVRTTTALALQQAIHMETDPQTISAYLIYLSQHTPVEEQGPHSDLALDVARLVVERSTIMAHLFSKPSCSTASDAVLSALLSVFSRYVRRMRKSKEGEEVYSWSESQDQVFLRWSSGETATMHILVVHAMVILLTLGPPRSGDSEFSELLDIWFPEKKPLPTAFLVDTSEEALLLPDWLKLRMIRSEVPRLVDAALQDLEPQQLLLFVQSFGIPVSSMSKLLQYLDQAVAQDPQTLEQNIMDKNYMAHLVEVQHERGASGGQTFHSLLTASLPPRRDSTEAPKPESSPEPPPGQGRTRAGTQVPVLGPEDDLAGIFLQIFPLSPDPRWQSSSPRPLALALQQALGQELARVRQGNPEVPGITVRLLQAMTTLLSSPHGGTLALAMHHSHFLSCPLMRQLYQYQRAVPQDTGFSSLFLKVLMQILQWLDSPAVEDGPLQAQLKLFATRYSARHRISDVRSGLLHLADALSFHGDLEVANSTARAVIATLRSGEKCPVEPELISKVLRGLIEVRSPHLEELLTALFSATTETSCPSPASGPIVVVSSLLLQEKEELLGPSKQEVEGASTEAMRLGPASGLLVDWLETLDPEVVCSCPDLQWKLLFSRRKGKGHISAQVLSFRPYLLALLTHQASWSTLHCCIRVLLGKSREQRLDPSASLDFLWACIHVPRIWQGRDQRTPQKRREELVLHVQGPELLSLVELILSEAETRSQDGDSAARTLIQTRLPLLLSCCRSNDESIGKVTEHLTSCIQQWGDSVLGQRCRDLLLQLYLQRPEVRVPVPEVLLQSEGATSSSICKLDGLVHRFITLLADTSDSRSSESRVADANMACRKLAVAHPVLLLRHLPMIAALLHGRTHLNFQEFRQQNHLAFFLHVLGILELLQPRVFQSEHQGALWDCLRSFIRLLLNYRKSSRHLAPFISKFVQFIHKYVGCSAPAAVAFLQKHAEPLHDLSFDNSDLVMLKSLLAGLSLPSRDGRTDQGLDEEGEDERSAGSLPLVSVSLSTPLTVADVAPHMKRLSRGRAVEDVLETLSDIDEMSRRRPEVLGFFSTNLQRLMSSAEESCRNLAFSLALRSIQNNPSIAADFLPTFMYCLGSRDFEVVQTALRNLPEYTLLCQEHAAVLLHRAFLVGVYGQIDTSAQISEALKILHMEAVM
UniProt Q8K114: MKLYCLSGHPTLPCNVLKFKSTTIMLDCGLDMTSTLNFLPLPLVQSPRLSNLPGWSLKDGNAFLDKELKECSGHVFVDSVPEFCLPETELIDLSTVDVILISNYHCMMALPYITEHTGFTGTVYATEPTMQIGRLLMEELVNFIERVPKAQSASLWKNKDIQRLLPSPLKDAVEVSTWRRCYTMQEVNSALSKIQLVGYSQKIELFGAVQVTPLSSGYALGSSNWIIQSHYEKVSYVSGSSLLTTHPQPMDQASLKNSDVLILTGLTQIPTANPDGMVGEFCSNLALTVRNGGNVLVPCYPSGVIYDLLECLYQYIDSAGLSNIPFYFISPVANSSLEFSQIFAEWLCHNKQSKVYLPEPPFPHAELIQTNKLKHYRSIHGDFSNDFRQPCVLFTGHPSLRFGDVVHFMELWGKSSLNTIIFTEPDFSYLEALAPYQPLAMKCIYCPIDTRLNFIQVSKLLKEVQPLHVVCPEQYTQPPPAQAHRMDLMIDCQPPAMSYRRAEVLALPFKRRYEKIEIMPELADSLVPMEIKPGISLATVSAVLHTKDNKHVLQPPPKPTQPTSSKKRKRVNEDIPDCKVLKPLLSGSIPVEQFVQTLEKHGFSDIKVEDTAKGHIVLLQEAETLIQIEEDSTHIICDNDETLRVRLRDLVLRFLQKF

In assay [1] the target is T1, C-terminally 3xFlag-tagged Esrrb (oestrogen-related receptor beta) (mouse) (UniProt Q61539).
T1 sequence: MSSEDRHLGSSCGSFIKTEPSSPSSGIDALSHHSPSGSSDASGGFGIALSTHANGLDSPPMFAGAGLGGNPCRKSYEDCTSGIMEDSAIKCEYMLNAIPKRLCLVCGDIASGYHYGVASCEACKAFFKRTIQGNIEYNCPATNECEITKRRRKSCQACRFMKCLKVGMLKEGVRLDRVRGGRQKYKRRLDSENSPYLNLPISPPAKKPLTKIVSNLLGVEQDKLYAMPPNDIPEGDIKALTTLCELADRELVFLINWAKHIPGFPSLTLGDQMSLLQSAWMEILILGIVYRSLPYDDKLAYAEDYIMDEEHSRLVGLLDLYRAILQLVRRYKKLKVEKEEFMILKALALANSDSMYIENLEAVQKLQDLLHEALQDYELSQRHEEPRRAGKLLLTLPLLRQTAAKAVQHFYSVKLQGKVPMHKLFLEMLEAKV
In words: co-IP; anti-FLAG M2 agarose IP of Esrrb-3xFlag from TS cell nuclear extract (buffer D, 3 h at 4 °C with Benzonase, FLAG-tripeptide elution), western blot of the eluate.

In assay [2] the target is T1, C-terminally 3xFlag-tagged Esrrb (oestrogen-related receptor beta) (mouse). The description is as above. The source holds these as a separate data set.

“Integrator1 (Ints1) (from UniProt Q6P4S8 1-2195)”: the binding result in assay [1] is on record as “binds”.

“Integrator complex subunit 9 (from UniProt Q8K114 1-658)”: the binding result in assay [1] is “binds”.

B1: Nuclear receptor subfamily 0 group B member 1 (protein, UniProt Q61066 1-472)
chain: MAGEDHPWQGSILYNLLMSAKQKHASQEEREVRLGAQCWGCACGAQPVLGGERLSGGQARSLLYRCCFCGENHPRQGGILYSMLTNARQPSVATQAPRARFGAPCWGCACGSAEPLVGREGLPAGQAPSLLYRCCFCGEEHPRQGSILYSLLTSAQQTHVSREAPEAHRRGEWWQLSYCTQSVGGPEGLQSTQAMAFLYRSYVCGEEQPQQISVASGTPVSADQTPATPQEQPRAPWWDASPGVQRLITLKDPQVVCEAASAGLLKTLRFVKYLPCFQILPLDQQLVLVRSCWAPLLMLELAQDHLHFEMMEIPETNTTQEMLTTRRQETEGPEPAEPQATEQPQMVSAEAGHLLPAAAVQAIKSFFFKCWSLNIDTKEYAYLKGTVLFNPDLPGLQCVKYIEGLQWRTQQILTEHIRMMQREYQIRSAELNSALFLLRFINSDVVTELFFRPIIGAVSMDDMMLEMLCAKL
With B1, the binding entry in assay [2] is “binds”.

The values are drawn from PMC4525203.
